Reference: PubChem BioAssay AID504764 (Drosophila RNAi Screening Center, 2011)
Assay: 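Genes whose knock-down alters Notch-dependent transcription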 (primary screen). Cell system: Drosophila Kc167 cells. Reagent: long dsRNA against Drosophila genes. Time to read-out: about 5 days (4 days dsRNA, then 24 h after transfection). Challenge: transfection of constitutively active membrane-tethered Notch lacking the extracellular domain, read 24 h later. Measured: 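Firefly luciferase from an E(spl)m3 reporter with active Notch, plus control-promoter and uninduced reporter wells for normalisation; unnormalised counts, duplicate wells a and b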. Reading the numbers: induced reporter light, run 1, well a and induced reporter light, run 1, well b: higher = more light from the Notch target reporter with active Notch; control promoter light, run 1, well a and control promoter light, run 1, well b: higher = more light from the viral control promoter (cell number, transfection, viability); uninduced reporter light, run 1, well a: higher = more light from the Notch target reporter without active Notch. Call rule: 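Wells with low control signal or poorly matching duplicates excluded; duplicates averaged; per source plate, z beyond ±2 for induced/control log2 ratio or beyond ±1.8 for induced/uninduced marks a hit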. Meaning of the calls: active = modifier hit (raised or lowered Notch signal); inactive = not a hit.
The screen tested about 22,000 reagents; below is an unselected part of those that have a named target and a result. Over the whole deposit, 403 (1.9%) got an active call. 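Unnormalised raw counts per well; ratio z-scores behind the hit calls and whether each hit raises or lowers signal are not deposited.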 Reagent sequences are not shown. Not stated in the record: the amount of reagent.

Gene	amplicon	induced reporter light, run 1, well a	induced reporter light, run 1, well b	control promoter light, run 1, well a	control promoter light, run 1, well b	uninduced reporter light, run 1, well a	Call
Cbs	DRSC20553	1.21e5	1.02e5	1.00e5	54470	9390	inactive
Gfrl	DRSC15197	1.63e5	1.73e5	1.78e5	2.17e5	13880	inactive
Gfrl	DRSC15199	1.87e5	1.45e5	2.00e5	2.16e5	10790	inactive
Gfrl	DRSC15565	1.83e5	1.94e5	2.18e5	2.36e5	15192	inactive
Gfrl	DRSC15719	1.77e5	1.38e5	2.56e5	2.22e5	11475	inactive
l(2)37Cd	DRSC02069	2.35e5	2.42e5	2.04e5	2.17e5	18288	inactive
sced	DRSC04990	1.87e5	2.14e5	1.57e5	1.89e5	13638	inactive
Ubr3	DRSC17987	1.70e5	1.59e5	1.87e5	2.25e5	11745	inactive
Ubr3	DRSC17997	1.35e5	1.53e5	3.30e5	3.49e5	11215	inactive
CG10597	DRSC19357	83725	71155	1.21e5	89340	13385	inactive
conu	DRSC07810	2.10e5	1.84e5	2.11e5	2.14e5	16500	inactive
spdo	DRSC13988	67520	1.08e5	1.09e5	1.12e5	10940	inactive
Ir25a	DRSC00462	1.50e5	1.39e5	1.22e5	1.30e5	8715	inactive
RpL29	DRSC04650	44105	40230	40870	32895	2475	inactive
CG45263	DRSC12682	1.43e5	1.18e5	1.13e5	1.77e5	12955	inactive
CG45263	DRSC14360	82200	80205	63025	54855	6245	inactive
CG45263	DRSC14361	83750	1.02e5	92860	74115	4600	inactive
CG45263	DRSC14363	31775	44425	27820	19778	2690	inactive
CG32391	DRSC08865	1.81e5	2.02e5	2.30e5	2.19e5	14260	inactive
ohgt	DRSC15521	54645	69975	55025	41935	2800	inactive
CG12984	DRSC11693	1.43e5	1.22e5	1.20e5	1.03e5	8575	inactive
CG42254 (retired record)	DRSC06194	81200	85190	1.04e5	1.06e5	8335	inactive

The list goes on, starting with the last 7 of the part before.
Gene	amplicon	induced reporter light, run 1, well a	induced reporter light, run 1, well b	control promoter light, run 1, well a	control promoter light, run 1, well b	uninduced reporter light, run 1, well a	Call
CG45263	DRSC14360	82200	80205	63025	54855	6245	inactive
CG45263	DRSC14361	83750	1.02e5	92860	74115	4600	inactive
CG45263	DRSC14363	31775	44425	27820	19778	2690	inactive
CG32391	DRSC08865	1.81e5	2.02e5	2.30e5	2.19e5	14260	inactive
ohgt	DRSC15521	54645	69975	55025	41935	2800	inactive
CG12984	DRSC11693	1.43e5	1.22e5	1.20e5	1.03e5	8575	inactive
CG42254 (retired record)	DRSC06194	81200	85190	1.04e5	1.06e5	8335	inactive
cu	DRSC15643	91975	1.11e5	1.02e5	79600	5415	inactive
cu	DRSC15648	80885	82095	56685	63560	3990	inactive
CG33271	DRSC10583	2.11e5	1.31e5	1.75e5	1.79e5	9705	inactive
CG17959	DRSC18142	1.00e5	99870	1.59e5	1.76e5	7255	inactive
Karl	DRSC19883	1.95e5	1.87e5	2.32e5	1.99e5	12025	inactive
CG42553	DRSC08356	1.08e5	1.65e5	1.52e5	2.25e5	7278	inactive
CG18258	DRSC19798	18140	16320	13282	8825	1438	inactive
CG14384	DRSC14842	2.82e5	2.91e5	2.33e5	2.59e5	22075	inactive
Dtg	DRSC15998	1.55e5	1.38e5	94910	89190	8632	inactive
metro	DRSC06341	1.90e5	2.09e5	1.96e5	2.02e5	18595	inactive
metro	DRSC06725	1.18e5	1.34e5	1.74e5	1.87e5	14580	inactive
CG5126	DRSC00680	1.43e5	1.54e5	1.18e5	1.20e5	10545	inactive
CG17097	DRSC02569	1.73e5	1.69e5	93250	1.18e5	19825	inactive
Prosbeta6	DRSC11256	10365	7185	6990	7645	1020	inactive
CG11403	DRSC18532	1.53e5	2.07e5	2.07e5	2.02e5	11020	inactive
CG3014	DRSC15458	73080	71330	70775	64250	5825	inactive
gem	DRSC06093	75470	70010	62400	74135	6710	inactive
gem	DRSC06847	2.29e5	2.16e5	2.79e5	2.51e5	16360	inactive
ND-B14.5B	DRSC00346	1.88e5	1.68e5	1.63e5	1.40e5	10675	inactive
Ref2	DRSC02563	1.77e5	2.02e5	1.93e5	2.05e5	16542	inactive
Reck	DRSC10504	1.22e5	1.35e5	73745	91690	8955	inactive
Reck	DRSC10505	2.41e5	2.18e5	2.64e5	2.88e5	9038	inactive
CG9445	DRSC05006	1.79e5	1.76e5	2.93e5	2.36e5	19892	inactive
hkb	DRSC12377	1.24e5	93140	96575	73665	5765	inactive
CG13364	DRSC17898	1.22e5	1.16e5	1.95e5	1.40e5	8528	inactive
CG13364	DRSC21263	97885	68235	78070	1.05e5	9450	inactive
CG43996	DRSC19456	84185	68985	80035	1.04e5	10295	inactive
CG43996	DRSC19457	95140	74755	95930	96980	10455	inactive
